According to PubChem BioAssay AID2685 (National Center for Advancing Translational Sciences (NCATS), 2010):
The list shows a part of the results. Further columns of the screen follow, without active or inactive calls. Most of these compounds were active or inconclusive in the main read-out, so they are no random draw. The note in brackets gives the kind of curve behind each potency; many fits are weak.

Test: qHTS Assay for Lipid Storage Modulators in Drosophila S3 Cells;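 as to cell number change: cells counted by Cell Tracker Red CMTPX staining in the red channel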
Settings: BODIPY lipid droplet fluorescence, 18-24 h; for cell number change: measured here: cell count max response, cells fed with added oleic acid
Procedure, shortened: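 Drosophila S3 cells got compounds at several concentrations plus oleic acid (400 uM solution). Laser-scanning cytometry with 488 nm excitation read lipid droplets at 500-530 nm and cells at 575-640 nm. Percent activity was relative to 20 uM Triacsin C.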

[1] = measured here: lipid fluorescence (Fed channel) AC50, cells fed with added oleic acid
[2] = measured here: cell number channel AC50, cells fed with added oleic acid

Row | SMILES | cell number change | AC50 [1] | AC50 [2]
1 | Cc1cc(C)n(-c2ccc(F)cc2)c(=O)c1C#N | -10.2% | 0.92 µM [falling, full curve, poor fit] | 
2 | CCOCCN1CCN(C(=O)CN2CCCC2=O)CC1 | -6.35% | 1.16 µM [falling, partial curve] | 
3 | O=C(C[n+]1ccn(-c2ccccc2)c1)c1ccc([N+](=O)[O-])cc1 | -37.8% | 6.51 µM [falling, single point] | 29.1 µM [falling, single point]
4 | Cc1ccc2nc(SCc3nnc(-c4ccccc4[N+](=O)[O-])o3)c(C#N)cc2c1 | -21.5% |  | 3.26 µM [falling, single point]
5 | CCOC(=O)C(C)Oc1cccc2c(=O)n(CC(=O)NCc3ccc(F)cc3)ccc12 (configuration not stated) | 6.28% | 1.03 µM [falling, full curve] | 
6 | O=C1CCN(CCc2ccccc2)CCN1[C@H](CO)Cc1ccccc1 | 30.1% |  | 
7 | O=C1NC(=O)C2(COC(c3ccncc3)OC2)S1 (configuration not stated) | -52.7% |  | 0.00461 µM [falling, full curve, poor fit]
8 | CCC(C)Sc1nnc(CNC(=O)C23CC4CC(CC(C4)C2)C3)n1C1CCCCC1 (configuration not stated) | -49.7% | 18.4 µM [falling, single point] | 16.4 µM [falling, single point]
9 | CC(C)C(NC(=O)c1ccccc1)C(=O)NCC(c1ccccc1)N(C)C (configuration not stated) | -65.8% | 23.1 µM [falling, partial curve] | 14.6 µM [falling, partial curve]
10 | C/C(=N\NC(=O)C(c1ccccc1)c1ccccc1)c1ccccn1 | -2.76% | 2.06 µM [falling, partial curve] | 6.51 µM [falling, single point]
11 | S=C(NCc1ccco1)Nc1ccc(Oc2ccccc2)cc1 |  | 4.11 µM [rising, single point] | 
12 | Cc1cc2cc(CNS(=O)(=O)c3ccccc3)ccc2n1C | 0.395% | 3.66 µM [rising, single point] | 
13 | COc1ccccc1C(=O)N(C)c1nnc(-c2ccccc2)s1 | 2.89% | 18.4 µM [rising, partial curve] | 
14 | CCOc1ccc(CN(C(=O)c2ccco2)C2CCS(=O)(=O)C2)cc1 (configuration not stated) | -48.9% | 16.4 µM [falling, single point] | 29.1 µM [falling, single point]
15 | COc1cccc(/C=C2/SC(=S)N(CC(=O)NNC(=O)c3ccccc3OC)C2=O)c1 | 3.04% | 29.1 µM [rising, single point] | 
16 | CCOc1ccc(-c2cc(N)n(S(=O)(=O)c3cccc4nsnc34)n2)cc1 | 11.5% | 29.1 µM [rising, single point] | 
17 | COc1ccccc1C(=O)CSc1n[nH]c(N)n1 | -15.9% | 2.31 µM [falling, full curve] | 
18 | COc1ccc(-c2cc(C)no2)cc1S(=O)(=O)N1CCCN(Cc2ccccc2Cl)C1 | -5.07% | 16.4 µM [falling, single point] | 

From no. 1 to 11, copied from above:
Row | SMILES | cell number change | AC50 [1] | AC50 [2]
1 | Cc1cc(C)n(-c2ccc(F)cc2)c(=O)c1C#N | -10.2% | 0.92 µM [falling, full curve, poor fit] | 
2 | CCOCCN1CCN(C(=O)CN2CCCC2=O)CC1 | -6.35% | 1.16 µM [falling, partial curve] | 
3 | O=C(C[n+]1ccn(-c2ccccc2)c1)c1ccc([N+](=O)[O-])cc1 | -37.8% | 6.51 µM [falling, single point] | 29.1 µM [falling, single point]
4 | Cc1ccc2nc(SCc3nnc(-c4ccccc4[N+](=O)[O-])o3)c(C#N)cc2c1 | -21.5% |  | 3.26 µM [falling, single point]
5 | CCOC(=O)C(C)Oc1cccc2c(=O)n(CC(=O)NCc3ccc(F)cc3)ccc12 (configuration not stated) | 6.28% | 1.03 µM [falling, full curve] | 
6 | O=C1CCN(CCc2ccccc2)CCN1[C@H](CO)Cc1ccccc1 | 30.1% |  | 
7 | O=C1NC(=O)C2(COC(c3ccncc3)OC2)S1 (configuration not stated) | -52.7% |  | 0.00461 µM [falling, full curve, poor fit]
8 | CCC(C)Sc1nnc(CNC(=O)C23CC4CC(CC(C4)C2)C3)n1C1CCCCC1 (configuration not stated) | -49.7% | 18.4 µM [falling, single point] | 16.4 µM [falling, single point]
9 | CC(C)C(NC(=O)c1ccccc1)C(=O)NCC(c1ccccc1)N(C)C (configuration not stated) | -65.8% | 23.1 µM [falling, partial curve] | 14.6 µM [falling, partial curve]
10 | C/C(=N\NC(=O)C(c1ccccc1)c1ccccc1)c1ccccn1 | -2.76% | 2.06 µM [falling, partial curve] | 6.51 µM [falling, single point]
11 | S=C(NCc1ccco1)Nc1ccc(Oc2ccccc2)cc1 |  | 4.11 µM [rising, single point] | 

(cont.)

Row | SMILES | cell number change | AC50 [1] | AC50 [2]
19 | COc1ccc(NC(=O)CSc2nc3c(c(=O)n2-c2ccc(C)cc2)SCC3)c(OC)c1 | 18% | 9.2 µM [rising, partial curve, poor fit] | 
20 | COc1ccc(/C=N/NC(=O)c2cccc([N+](=O)[O-])c2)c2ccccc12 | -108% |  | 
21 | COCCn1c(SCc2nc3ccccc3s2)nc2ccccc21 | 29.7% | 0.58 µM [rising, full curve] | 0.103 µM [rising, full curve]
22 | COc1ccc(N2CCN(C(=O)CCCCCn3c(=O)[nH]c4ccsc4c3=O)CC2)cc1 | 24.4% |  | 0.0651 µM [rising, partial curve, poor fit]
23 | CC1CCN(c2nc3ccc(C(=O)N4CCN(Cc5ccccc5)CC4)cc3s2)CC1 | 21% | 32.6 µM [rising, single point] | 2.59 µM [rising, partial curve]
24 | Cc1onc(-c2ccccc2)c1C(=O)OCC(=O)Nc1cccc(Cl)c1 | -41% | 25.9 µM [falling, partial curve, poor fit] | 18.4 µM [falling, partial curve, poor fit]
25 | CC1CCCCC1NC(=O)c1ccncc1 (configuration not stated) | 24.1% | 0.355 µM [rising, full curve] | 
26 | CCN(CC(=O)Nc1ccc2c(c1)OCCO2)S(=O)(=O)c1cccs1 | 48.4% | 6.51 µM [rising, single point] | 13 µM [rising, partial curve]
27 | COc1ccc(NS(=O)(=O)c2cc(C(=O)N3CCN(C/C=C/c4ccccc4)CC3)ccc2C)cc1 | 62.3% |  | 
28 | CCOc1cc(/C=N/n2c(COc3ccccc3)n[nH]c2=S)ccc1O | 172% |  | 
29 | COC(=O)c1cc2c(=O)n3ccccc3nc2n(C)c1=N | 80.3% |  | 29.1 µM [rising, single point]
30 | COc1ccc(N2C(N)=C(C#N)C(c3ccsc3)C3=C2CCCC3=O)c(OC)c1 (configuration not stated) | 13.2% | 1.03 µM [rising, partial curve, poor fit] | 
31 | CN(C)CCNc1nc2c(c(=O)[nH]c(=O)n2C)n1CCCc1ccccc1 | -37.7% | 0.58 µM [falling, full curve] | 0.366 µM [falling, full curve]
32 | CCOc1cc(/C=C(\C(=O)O)c2ccc(S(=O)(=O)N3CCCC3)s2)ccc1OC | 38.1% | 14.6 µM [rising, partial curve] | 14.6 µM [rising, partial curve, poor fit]
33 | Cc1cc(=O)n2nc(N3CCC(C(=O)NC4CCCc5ccccc54)CC3)sc2n1 (configuration not stated) | 10.7% | 25.9 µM [falling, single point] | 
34 | O=C(CSc1ccc2c(c1)OCCO2)Nc1cccc(S(=O)(=O)N2CCCCC2)c1 | 61.2% | 18.4 µM [rising, partial curve] | 29.1 µM [rising, single point]
35 | Brc1ccc(-c2nnc3c4ccccc4nc(N4CCOCC4)n23)cc1 | -1.07% | 0.411 µM [rising, full curve] | 
